The text below walks through data of publication PMC4866733 (PLoS Genetics, 2016).

Protein sequences, listed by entry. Tags and fused reporters are not part of them. Lines headed by an entry give the natural chain unless they say otherwise; changes in a name come on top.
UniProt Q9HX42: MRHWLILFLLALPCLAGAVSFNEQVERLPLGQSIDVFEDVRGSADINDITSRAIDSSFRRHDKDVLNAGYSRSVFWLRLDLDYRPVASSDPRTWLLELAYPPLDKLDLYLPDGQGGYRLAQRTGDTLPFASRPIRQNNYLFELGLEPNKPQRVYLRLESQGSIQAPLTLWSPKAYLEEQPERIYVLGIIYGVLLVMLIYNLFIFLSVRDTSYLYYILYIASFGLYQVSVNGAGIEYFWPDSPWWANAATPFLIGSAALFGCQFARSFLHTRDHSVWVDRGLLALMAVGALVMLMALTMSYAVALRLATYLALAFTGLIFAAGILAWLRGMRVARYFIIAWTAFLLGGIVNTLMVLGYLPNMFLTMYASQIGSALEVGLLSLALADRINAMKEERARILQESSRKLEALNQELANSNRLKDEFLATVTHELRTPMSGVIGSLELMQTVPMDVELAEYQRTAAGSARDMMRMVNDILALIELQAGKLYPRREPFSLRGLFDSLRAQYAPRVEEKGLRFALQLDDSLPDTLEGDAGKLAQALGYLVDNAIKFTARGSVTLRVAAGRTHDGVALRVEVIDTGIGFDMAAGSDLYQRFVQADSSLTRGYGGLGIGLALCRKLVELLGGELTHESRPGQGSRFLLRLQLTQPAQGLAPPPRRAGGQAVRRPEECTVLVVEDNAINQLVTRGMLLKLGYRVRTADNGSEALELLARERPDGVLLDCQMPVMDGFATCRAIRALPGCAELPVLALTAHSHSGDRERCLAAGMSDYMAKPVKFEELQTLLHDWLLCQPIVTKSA

The target in this assay is H2 domain of GacS HK, cyaAT25 two-hybrid fusion (Pseudomonas aeruginosa) (UniProt G3XD98). Briefly: two-hybrid; bacterial two-hybrid, cyaAT18 (pUT18C) and cyaAT25 (pKT25) fusions co-transformed in E. coli BTH101; blue colonies on X-gal/IPTG plates after 24 hours at 30°C and β-galactosidase activity in Miller units after 16 hours of growth.

Results are given in words; binding and its absence hold for the method and conditions named. Binding can be weak; no strength is given.

“D1 domain of LadS HK, cyaAT18 two-hybrid fusion (from UniProt Q9HX42) (domain or fragment)”: the binding result is “binds weakly”.
